Reference: PubChem BioAssay AID493014 (National Center for Advancing Translational Sciences (NCATS), 2011)
Screen size: about 340,000 compounds; about 170 (0.05%) were called active. This list was built around the results that the source calls inconclusive (neither active nor inactive); the mix of calls is not that of the screen. Calls come from the whole dose curve; as a rule, active = well fitted inhibition curve with a large enough effect in the signal ratio, with a control signal flat (not every such curve was filed as active); inconclusive = small, poorly fitted or top-dose-only effect, or effect the other way, or a change in a side signal; inactive = flat fitted curve, though single readings scatter; the % refers to the signal ratio. A potency beside an inconclusive call is a rough fit, not a confirmed value.

Experiment: qHTS Assay to Find Inhibitors of Chronic Active B-Cell Receptor Signaling;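 for activity change, negative = inhibition: plate controls were basal doxycycline-induced cells for no effect and cells given 10 µM MG132 for full effect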
Conditions: ABC-DLBCL IkBa-CBG/CBR reporter, luminescence ratio (green luciferase fused to IkBa over red control in TMD8 lymphoma cells), 4 h; activity change, negative = inhibition: at 46.1 µM (top of the series)
In short: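 Concentration-response series (up to 46 uM) were applied to TMD8 dual-reporter cells for 4 h at 37C with doxycycline. Green/red ratio, after filter-overlap correction, defined %Activity; red signal alone was normalised to basal cells and zero luminescence.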
Potency is the fitted concentration of half-maximal effect.

Structure (SMILES)	activity change, negative = inhibition	Potency
COc1ccc(NC(=O)c2ccc3c(c2)n(C)c(=O)n3C)cc1	inconclusive: -8.91%	
CC(=O)OCCCN1C(=O)c2cccc3cc(Br)cc(c23)C1=O	inconclusive: 0.75%	
CCOC(=O)CN(C(=O)CSc1nnc2c(n1)[nH]c1ccc(F)cc12)c1ccccc1	inconclusive: 19.6%	
COC(=O)CSc1nnc2c3c4c(sc3nc(-n3nc(C)cc3C)n12)COC(C)(C)C4	inconclusive: -2.81%	
OCCNCc1cc(Br)ccc1OCc1ccccc1	inactive: -4.01%	
COCCn1c(=NC(=O)c2ccc(S(=O)(=O)N3CCc4ccccc4C3)cc2)sc2cc(OC)ccc21	inactive: 0.536%	
COC(=O)c1ccc(NC(=O)C(=O)c2c[nH]c3ccccc23)cc1	inconclusive: 327%	
CCOC(=O)c1cc(-c2ccccc2)sc1NC(=O)CN1C(=O)NC(CC)(c2ccccc2)C1=O (configuration not stated)		inconclusive: 29.1 µM [rising, single point]
CN(C)CCCNc1cc(O)c2ncccc2c1	inactive	
CC(NC(=O)c1ccccc1F)c1nnc(SCc2nc3ccccc3c(=O)[nH]2)n1C (configuration not stated)	inconclusive: -32.9%	
Cc1cc(C)cc(NC(=O)CN(c2ccc(F)cc2)S(C)(=O)=O)c1	inconclusive: -10.8%	
O=C(CSc1nnc2ccccn12)Nc1ccccc1C(=O)NC1CC1	inconclusive: -5.18%	
Cc1ccc(-c2nc3cnccn3c2Nc2ccc3c(c2)OCCO3)o1	inconclusive: -5.69%	
CCOC(=O)c1sc2nc3c(SCCC(=O)O)cc(C(=O)c4cc(OC)ccc4O)cn3c(=O)c2c1C	inconclusive: 2.65%	
CCN1CCN(CC(=O)N2N=C(c3cccs3)CC2c2ccc(C)cc2)C(=O)C1=O (configuration not stated)	inconclusive: 16.8%	
CC(C)(C)c1ccc(C(=O)NN2C(=O)CSC2=S)cc1	inconclusive: 16%	
Cc1ccc(OCCC(=O)OCC(=O)N2CCN(S(=O)(=O)c3ccc(Cl)cc3)CC2)cc1	inconclusive: -3.48%	
O=C(Nc1ccccc1)Nc1csc2ccccc12	inconclusive: 1.94%	
C=CCn1c(SCC(=O)Nc2sccc2C(N)=O)nc2ccccc2c1=O		inconclusive: 0.259 µM [rising, full curve]
COC(=O)c1cccc(NC(=S)NCCC2=CCCCC2)c1	inconclusive: -15.6%	
COc1ccc(CC(=O)NNS(=O)(=O)c2ccccc2[N+](=O)[O-])cc1	inconclusive: -0.426%	

Structure (SMILES)	activity change, negative = inhibition	Potency
O=C(NCc1ccccc1F)C1CCCN(C(=O)NC2CCCCC2)C1 (configuration not stated)	inconclusive: -1.05%	
O=[N+]([O-])c1ccc(Cl)c(-c2ccc(/C=N/c3c(-c4ccco4)nc4ccccn34)o2)c1		inconclusive: 35.5 µM [rising, single point]
O=[N+]([O-])c1ccccc1N/N=C/c1c[nH]c2ccccc12	inactive: 13.2%	
CCOC(=O)Cc1csc(NC(=O)c2sc3nc4ccc(CC)cc4cc3c2N)n1	inconclusive: -2.12%	
CCN(CC)C(=O)c1[nH]cnc1C(=O)Nc1ccc(C)cc1	inconclusive: 9.76%	
CC(C)OCCCNC(=O)c1ccc2c(c1)ncn2C1CCCC1	inactive: 3.26%	
C=CCSc1nnc(-c2cccc3ccccc23)o1	inconclusive: 8.99%	
CCC(C)(C)NC(=O)c1cc([N+](=O)[O-])ccc1N1CCOCC1	inactive: 2.96%	
Clc1ccccc1-c1ccc(CN2CCN(c3ccccc3)CC2)o1	inconclusive: 7.52%	
COCCCNC(=O)CCn1nc(-c2ccc(Cl)cc2)ccc1=O	inconclusive: -9.23%	
O=C(CSc1ccc(Cl)cc1)N1CCN(c2ccc([N+](=O)[O-])cc2Cl)CC1	inactive: 0.317%	
CN(c1ccccc1)S(=O)(=O)c1ccc(C(=O)NCC2CCCO2)cc1 (configuration not stated)	inconclusive: 5.81%	
NS(=O)(=O)c1ccc(NC(=S)NC2CCCC2)cc1		inconclusive: 18.4 µM [falling, single point]
c1ccc(-c2nnc(-c3ccncc3)o2)cc1		inconclusive: 20.6 µM [falling, partial curve]
CCOc1ccc(NC(=O)c2ccc(F)c(S(=O)(=O)N(Cc3ccc(C(=O)OC)cc3)Cc3ccc(OC)c(OC)c3)c2)cc1	inactive: 6.02%	
CCOc1cc(C2C(C#N)=C(N)OC(C)=C2C(C)=O)cc(Br)c1O (configuration not stated)	inconclusive: 19.4%	
CC1CCc2nc(NC(=O)Cc3cccs3)sc2C1 (configuration not stated)		inconclusive: 14.6 µM [falling, partial curve]
COCCN1Cc2cccc(C(=O)Nc3ccc(-c4nc5ccccc5[nH]4)cc3)c2C1=O		inconclusive: 9.2 µM [falling, partial curve, poor fit]
N#Cc1c(-c2ccc(F)cc2)nc2n(c1=O)CCS2	inconclusive: -4.37%	
O=C(O)c1ccc(-n2cccc2)cc1O	inconclusive: -0.34%	
COC(=O)C1CCN(C(=O)CN2C(=O)NC3(CCC(C)CC3)C2=O)CC1 (configuration not stated)	inconclusive: 6.73%	

In the list so far, 5 have a nitro group on carbon.
Structure (SMILES)	activity change, negative = inhibition	Potency
COc1ccc(CC(=O)NNS(=O)(=O)c2ccccc2[N+](=O)[O-])cc1	inconclusive: -0.426%	
O=[N+]([O-])c1ccc(Cl)c(-c2ccc(/C=N/c3c(-c4ccco4)nc4ccccn34)o2)c1		inconclusive: 35.5 µM [rising, single point]
O=[N+]([O-])c1ccccc1N/N=C/c1c[nH]c2ccccc12	inactive: 13.2%	
CCC(C)(C)NC(=O)c1cc([N+](=O)[O-])ccc1N1CCOCC1	inactive: 2.96%	
O=C(CSc1ccc(Cl)cc1)N1CCN(c2ccc([N+](=O)[O-])cc2Cl)CC1	inactive: 0.317%	

Continued.

Structure (SMILES)	activity change, negative = inhibition	Potency
COc1cccc(N2CC(C(=O)Nc3ccc(C(=O)OC(C)C)cc3)CC2=O)c1 (configuration not stated)	inconclusive: 0.663%	
CCOC(=O)N1CCN(S(=O)(=O)c2ccc(C(=O)N(CCCN(C)C)c3nc4c(C)c(C)ccc4s3)cc2)CC1	inactive: 1.37%	
CC1=CC2=C(OC1N(C)C)c1cccc3cccc(c13)C2=O (configuration not stated)	inconclusive: 0.0023%	
O=C(N/N=C1\C(=O)c2cccc3cccc1c23)c1ccc(O)cc1		inconclusive: 35.5 µM [falling, partial curve, poor fit]
CCOc1ccc(-n2c(N)c(C(=O)NCC3CCCO3)sc2=S)cc1 (configuration not stated)	inconclusive: 1.48%	
Cc1noc2ncnc(Oc3ccccc3)c12	inactive: -2.89%	
CCOC(=O)c1c(NC(=O)CSc2nnc(CNc3ccc(F)cc3)o2)sc(C(C)=O)c1C	inconclusive: -4.58%	
Clc1ccc(Nc2c3c(nc4ncnn24)CCC3)cc1	inconclusive: -2.45%	
CCOC(=O)c1c(O)cc(OC)cc1CCc1ccccc1	inconclusive: 9.74%	
CCC(=O)Nc1ccc2c(c1)nc(CCN1CCN(c3ccccc3)CC1)n2C	inconclusive: -6.99%	
Cn1c(C(=O)NCC2CCCO2)cc2c(=O)[nH]c3ccccc3c21 (configuration not stated)	inconclusive: 17.8%	
Cc1cc(-c2ccccc2)nnc1NCCN1CCOCC1		inconclusive: 2.24 µM [falling, partial curve, poor fit]
C=CCC[C@@H](Cc1ccc(F)cc1)C(=O)OC[C@@H](Cc1ccccc1)NC(=O)[C@H](CC=C)CC(=O)NCCO	inconclusive: -13.7%	
O=C1OCCN1C(=O)[C@H]1[C@H](c2ccc([N+](=O)[O-])cc2)C(c2ccccc2)=NN1c1ccccc1	inactive: 7.57%	
CCn1c(Cc2ccccc2)nnc1SCC(=O)c1c(N)n(C2CC2)c(=O)[nH]c1=O	inconclusive: 6.12%	
O=C(CC12CC3CC(CC(C3)C1)C2)Nc1nncs1	inconclusive: -8.62%	
CCOC(=O)C1=CN(Cc2ccco2)S(=O)(=O)N(CC)C1c1ccccc1 (configuration not stated)	inconclusive: -5.47%	
Cc1cc(C(=O)COC(=O)c2ccc(Br)o2)c(C)n1C	inconclusive: 0.324%	
COc1ccc(Nc2cc(Cl)nc(N)n2)cc1OC		inconclusive: 14.1 µM [falling, single point]
C=C(C)COc1ccc(-c2[nH]ncc2Oc2ccccc2OCC)c(O)c1	inconclusive: 8.64%	
O=C(Nc1cccc(Cl)c1)Nc1cccc(Cl)c1	inconclusive: 12.6%	

Structure (SMILES)	activity change, negative = inhibition	Potency
CSCC[C@H](NC(=O)NCCC1=CCCCC1)C(=O)O		inconclusive: 17.8 µM [falling, single point]
Cc1cc(C)cc(NC(=O)c2ccc3nc[nH]c3c2)c1	inconclusive: -14.6%	
C/C(=N\N=C1\NC(=O)C(CC(=O)Nc2ccc(C)c(Cl)c2)S1)C(C)(C)C (configuration not stated)	inconclusive: 14.2%	
COC(=O)C(Cc1ccc(O)cc1)NC(=O)c1ccccc1 (configuration not stated)	inconclusive: -8.18%	
OCCN(Cc1nc(-c2ccc3c(c2)OCO3)no1)Cc1cccs1		inconclusive: 3.55 µM [rising, partial curve]
Cc1ccc(N2CC(O)Cn3c2nc2c3c(=O)n(C)c(=O)n2C)cc1 (configuration not stated)	inconclusive: 3.49%	
COc1ccc(C(=O)CSc2cc(C)nc3nc(C)nn23)cc1OC	inconclusive: -3.71%	
CCOc1ccc2[nH]c(=O)c(CN(CCO)C(=O)CC)cc2c1	inconclusive: 8.11%	
N#Cc1ccsc1NC(=O)c1cccc(-n2cnnn2)c1	inactive: 6.02%	
COc1ccccc1Cn1c(=O)[nH]c2cccnc21	inconclusive: -6.99%	
CN(NC(=O)c1ccccc1F)c1nc(C(F)(F)F)nc2ccccc12	inconclusive: -26.7%	
O=c1c(-c2ccccc2Cl)c[nH]n1-c1ccccc1		inconclusive: 22.4 µM [falling, single point]
CCCN(CCC)C(=O)COc1cc(=O)n(CC)c2ccccc12	inconclusive: -0.726%	
CCOC(=O)CSc1nc2sc(C)c(C)c2c(=O)[nH]1	inactive: 3.15%	
Cc1cccn2cc(CSc3ccccc3N)nc12	inconclusive: -16.6%	
Cc1nn(Cc2ccccc2)c2c1C(c1cccc(Cl)c1)C(C#N)=C(N)O2 (configuration not stated)		inconclusive: 18.4 µM [falling, partial curve, poor fit]
CCC(C)(C)n1nnnc1CN1CCC(NC(=O)c2ccc(Br)cc2)CC1	inactive: 2.86%	
COc1ccc(Cl)cc1NC(=O)CN(C)C(=O)Cc1n[nH]c(=O)c2ccccc12		inconclusive: 23.1 µM [falling, partial curve, poor fit]
Cc1ccc2[nH]c(=O)c(CN(Cc3ccccc3)C(=S)NCCCN(C)C)cc2c1		inconclusive: 10 µM [falling, partial curve]
